Results: patent US12186325B2, “Treatment and prevention of premature ejaculation (PE)” (SEROJAC PME Handels GmbH, priority 2018, dated 2025)
At least one structure is not confirmed: it was looked up by name or label, or the drawing left a doubt.

System: premature ejaculation (PE)
Experiment: Case reports: intravaginal ejaculation latency time (IELT) in PE patients
Type: in vivo, human
Details: Case Report 4; for 4 months

Structure (SMILES): CN(C)CCCC1(c2ccc(F)cc2)OCc2cc(C#N)ccc21 (stereo not shown) [citalopram]
- outcome of earlier PE treatment: unsuccessfully
